# Reference: publication PMC5740878
# By UniProt entry, the sequences of proteins in these tests, tags left out.
# UniProt Q92993: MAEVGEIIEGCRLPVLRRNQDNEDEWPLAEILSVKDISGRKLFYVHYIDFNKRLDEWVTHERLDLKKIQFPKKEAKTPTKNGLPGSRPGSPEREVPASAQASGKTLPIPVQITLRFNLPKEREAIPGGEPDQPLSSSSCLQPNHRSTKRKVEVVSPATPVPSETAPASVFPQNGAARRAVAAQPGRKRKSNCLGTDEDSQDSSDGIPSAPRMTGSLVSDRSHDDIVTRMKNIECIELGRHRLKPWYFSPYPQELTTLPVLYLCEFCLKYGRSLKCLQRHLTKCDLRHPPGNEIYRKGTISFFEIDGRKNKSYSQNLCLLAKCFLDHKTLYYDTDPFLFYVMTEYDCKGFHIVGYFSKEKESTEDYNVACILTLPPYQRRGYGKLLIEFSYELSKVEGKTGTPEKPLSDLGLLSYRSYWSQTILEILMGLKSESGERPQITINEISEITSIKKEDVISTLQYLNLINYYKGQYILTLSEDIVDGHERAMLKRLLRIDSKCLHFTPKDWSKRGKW
# These are yes or no findings as the source states them, for the method shown. In cells and extracts the contact can be indirect. Some binding calls cover weakened binding; strength is not graded here.
# Molecular target: T1, UHRF1-mCherry (UniProt Q96T88)
# T1 sequence: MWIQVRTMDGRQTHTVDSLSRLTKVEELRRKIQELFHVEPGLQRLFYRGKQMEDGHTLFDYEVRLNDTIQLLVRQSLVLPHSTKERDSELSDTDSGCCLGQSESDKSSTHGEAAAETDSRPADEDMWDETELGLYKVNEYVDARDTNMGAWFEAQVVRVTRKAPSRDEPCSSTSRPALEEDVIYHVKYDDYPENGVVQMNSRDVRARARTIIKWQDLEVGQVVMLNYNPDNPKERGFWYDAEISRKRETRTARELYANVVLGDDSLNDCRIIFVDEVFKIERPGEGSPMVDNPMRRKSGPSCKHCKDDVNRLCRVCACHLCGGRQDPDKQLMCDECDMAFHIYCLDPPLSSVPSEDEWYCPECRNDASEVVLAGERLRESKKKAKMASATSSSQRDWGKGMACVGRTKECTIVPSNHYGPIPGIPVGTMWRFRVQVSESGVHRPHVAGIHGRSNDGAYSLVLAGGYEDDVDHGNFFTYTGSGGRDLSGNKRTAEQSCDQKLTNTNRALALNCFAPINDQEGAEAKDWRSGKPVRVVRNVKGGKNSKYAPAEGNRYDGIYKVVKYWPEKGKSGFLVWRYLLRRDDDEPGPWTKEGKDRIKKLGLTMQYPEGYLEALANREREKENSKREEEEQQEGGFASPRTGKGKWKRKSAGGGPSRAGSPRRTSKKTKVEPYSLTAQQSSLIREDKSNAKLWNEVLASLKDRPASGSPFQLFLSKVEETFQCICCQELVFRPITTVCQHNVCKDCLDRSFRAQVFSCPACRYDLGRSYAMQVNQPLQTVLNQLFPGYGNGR
# Assay: co-IP; HeLa cells (untransfected or transfected), lysed by freeze shock and sonication in PBS with protease inhibitors; 800 μg to 1 mg lysate with antibody (anti-mCherry, anti-eGFP or anti-UHRF1) 4 h at 4 °C, Dynabeads Protein A 1 h at 4 °C, five washes; Western blot
row,binding,Substance
1,binds,endogenous TIP60 (from UniProt Q92993 1-513)
2,binds,TIP60-eGFP wild type (from UniProt Q92993 1-513)
